Assay results taken from patent US20230035798A1.
Results are given in words; binding and its absence hold for the method and conditions named. Some binding calls cover weakened binding; strength is not graded here.

By UniProt entry, the sequences of proteins in these tests, tags left out. Where a name states a change or a piece, a line headed by the entry shows the natural chain unless it says otherwise.
UniProt O43557: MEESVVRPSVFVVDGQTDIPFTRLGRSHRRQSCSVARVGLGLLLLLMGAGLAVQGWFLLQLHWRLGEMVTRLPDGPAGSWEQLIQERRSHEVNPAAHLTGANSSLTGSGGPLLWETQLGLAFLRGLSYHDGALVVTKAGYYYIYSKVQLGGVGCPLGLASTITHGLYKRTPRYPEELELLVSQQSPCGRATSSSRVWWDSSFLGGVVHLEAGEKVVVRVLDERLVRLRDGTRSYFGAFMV

Columns and labels:
[1] = target: human LIGHT (TNFSF14), full length, membrane-bound (214E allele) (human) (UniProt O43557); experiment: flow cytometry competition: graded mAb against biotinylated LTβR-Fc binding to HEK293FF cells transiently expressing human LIGHT
[2] = target: human LIGHT (TNFSF14), full length, membrane-bound (214E allele) (human) (UniProt O43557); experiment: flow cytometry competition: graded mAb against biotinylated HVEM-Fc binding to HEK293FF cells transiently expressing human LIGHT
[3] = target: human LIGHT (TNFSF14), full length, membrane-bound (214E allele) (human) (UniProt O43557); experiment: flow cytometry, EL4-LIGHT cells
[4] = target: human LIGHT (TNFSF14), full length, membrane-bound (214E allele) (human) (UniProt O43557); experiment: comparison of BIAcore KD and cell-based KD
[5] = target: human LIGHT (TNFSF14), full length, membrane-bound (214E allele) (human) (UniProt O43557); experiment: flow cytometry, mAb binding to EL4 cells stably expressing human LIGHT [lower panel]
[6] = target: human LIGHT (TNFSF14), full length, membrane-bound (214E allele) (human) (UniProt O43557); experiment: flow cytometry, mAb binding to EL4 cells stably expressing human LIGHT [upper panel]

binding [1]	binding [2]	binding [3]	binding [4]	binding [5]	binding [6]	Binder
binds	binds	binds	binds	binds	–	3D12 (antibody, human IgG4, V domains shown) VH: QVQLQQPGAELVRPGASVTLSCKASDYTFTDSEIHWVKQTPVHGLEWIGEIDPETGGTAYNQKFKGKATLTADKSSSTAYMELRSLTSEDSAVYYCSRETDYFFDYWGQGTTLTVSS VL: DIQMTQSPASLSASVGETVTITCGASENIYGALNWYQRKQGKSPQLLIYGATNLADGMSSRFSGSGSGRQYSLKISSLHPDDVATYYCQNVLSTPWTFGGGTKLEIKR
binds	binds	binds	–	–	–	3C10 (antibody, human IgG4, V domains shown) VH: EVQLQQSGAELVRPGASVTLSCKASDYTFTDSEIHWVKQTPVHGLEWIGEIDPETGGTAYNQKFKGKATLTADKSSSTAYMELRSLTSEDSAVYYCSRETDYFFDYWGQGTTLTVSS VL: DVVMTQTPAIMSASPGEKVTMTCSASSSVSYMYWYQQKPGSSPRLLIYDTSNLASGVPVRFSGSGSGTSYSLTISRMEAEDAATYYCQQWSSYPLTFGAGTKLELK
binds	binds	binds	binds	binds	binds	3B04 (antibody, human IgG4, V domains shown) VH: QVQLQQPGAELVRPGASVTLSCKASGYTFTDYEMHWVKQTPVHGLEWIGEIDPETGDTAYSQKFKGKATLTADKSSSTAYMEFRSLTSEDSAVYYCSRETDYFFDYWGQGTTLTVSS VL: DIQMTQTPASLSASVGETVTITCGASENIYGALNWYQRKQGKSPQLLIYGATNLADGMSSRFSGSGSGRQYSLKISSLHPDDFATYYCQNVLTTPWTFGGGTKLEIKR

More lines, now with the values behind:

Binder	binding [1]	binding [2]	binding [3]	binding [4]	binding [5]	binding [6]
2B11 (antibody, human IgG4, V domains shown) VH: EVQLVESGAELVRPGVSVKISCKGSGYTFTDYAIHWVKQSHAKSLEWIGVISTYYGDASYNQKFKGKATMTVDKSSSTAYMELARLTSEDSAIYYCARSRGEYGNYDAMDYWGQGTSVTVSS VL: DIVLTQSPASLAVSLGQRATISCRASESVDSYGNSFMHWYQQKPGQPPKLLIYRASNLESGIPARFSGSGSRTDFTLTINPVEADDVATYYCQQSNEDPYTFGGGTKLEIK	binds	binds	binds	–	–	–
3A07 (antibody, human IgG4, V domains shown) VH: QVQLQQSGAELVRPGAPVTLSCKASDYTFTDSEIHWVKQTPVHGLEWIGEIDPETGGTAYNQKFKGKATLTADKSSSTAYMELRSLTSEDSAVYYCSRETDYFFDYWGQGTTLTVSS VL: ENVLTQSPAIMSASPGEKVTMTCSASSSVSYMYWYQQRPGSSPRLLIYDTSNLASGVPVRFSGSGSGTSYSLTISRMEAEDAATYYCQQWSSYPLTFGSGTKLEIK	binds	binds	binds	–	–	–
